Here are results for 1 molecule from patent US20250155441A1.

For this assay, the target named is T1, AFP(248-256)Ac-248]amid (human).
T1 sequence (peptide, N-terminal acetylation; C-terminal carboxyamide): TKVNFTEIQ
As to the kind of experiment: SPR affinity in solution.

No constants are given. Whether binding was seen depends on the method and setting. Some results given as binding are weak or reduced against the parent protein; the word gives no strength.

B1: mAb<AFP-L3>rRb-3C5-IgG (antibody, V domains shown)
VH: QSVEESGGRLVAPGTPLTLTCTVSGIDLSTYGMGWVRQAPGKGLEYIGIIDSGSTYYANWAKGRFTISKTSTTVDLKMTSLTTEDTATYFCARDRDPSSSGYYFKMWGPGTLVTVSL
VL: ALVMTQTPSSVSAAVGGTVTINCQASQSIGSYLAWYQQKPGQPPRLLIYGASNLESGVPSRFKGSGSGTEFTLTISDLECDDAATYYCQTAFYIFSSDNAFGGGTEVVVK
For the molecule B1, the binding entry was “binds”.
